Experimental data: PMC6981868, “Repurposing Potential of Riluzole as an ITAF Inhibitor in mTOR Therapy Resistant Glioblastoma” (International Journal of Molecular Sciences, 2020)

The chains behind the UniProt entries cited, without tags or fusion partners. Where a name states a change or a piece, a line headed by the entry shows the natural chain unless it says otherwise.
UniProt P09651: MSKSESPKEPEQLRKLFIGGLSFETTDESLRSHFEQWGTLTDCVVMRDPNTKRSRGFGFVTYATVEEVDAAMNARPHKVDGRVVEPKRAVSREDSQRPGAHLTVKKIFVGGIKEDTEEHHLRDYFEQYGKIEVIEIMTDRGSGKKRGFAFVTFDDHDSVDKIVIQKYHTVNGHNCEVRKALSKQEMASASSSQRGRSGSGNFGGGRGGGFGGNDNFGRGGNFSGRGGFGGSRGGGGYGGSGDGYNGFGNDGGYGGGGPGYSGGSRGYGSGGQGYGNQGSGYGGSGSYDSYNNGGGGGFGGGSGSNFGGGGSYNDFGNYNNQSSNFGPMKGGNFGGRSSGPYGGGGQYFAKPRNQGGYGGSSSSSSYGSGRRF

Molecular target: T1, hnRNP A1 (Homo sapiens, UniProt P09651)
T1 construct: gene HNRNPA1
Experiment: biochemical

For `Nc1nc2ccc(OC(F)(F)F)cc2s1` [riluzole], the Kd was 662 nM.
